These results are taken from the supplement of paper PMC12889115.

SMILES strings stand for the structures. The list shows a part of the results. These are raw signals, not scaled to a control.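 Primary screen: polymyxin B was added at a level permeabilizing Salmonella outer membranes while sparing inner membranes. DMSO wells, both with and without polymyxin B, established maximum growth. Plate-to-plate variation meant each plate was ranked on its own, and the lowest-OD600 compounds were selected as hits.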

The assay has as its system Salmonella enterica serovar Typhimurium SL1344. Nature of the assay: bacterial growth OD600 after 18 h with compound and polymyxin B; higher = more bacterial growth (less inhibition). The following applies: 50 µM, Mueller-Hinton broth.

Consider `COc1cc(C(=O)N2CCCC(N3CCN(c4ccc(F)cc4)CC3)C2)ccc1C` (centres undefined), for which the “bacterial growth OD600” value (polymyxin B 1 µg/mL) is 0.913.
On to `CCCC1(C2CCN(C(=O)Cc3ccc(SC)cc3)CC2)NC(=O)N(CCc2ccccn2)C1=O` (centres undefined), for which the “bacterial growth OD600” value (polymyxin B 0.75 µg/mL) was 0.982.
Turning to `CNc1ccc(C(=O)N2CCC(CCn3cccn3)CC2)cn1`, the “bacterial growth OD600” value (polymyxin B 0.75 µg/mL) turned out to be 0.796.
Turning to `Cc1cccnc1CN1CCN(C(=O)Cn2nnnc2CN(C)C(C)C)CC1`, the “bacterial growth OD600” value (polymyxin B 1 µg/mL) is 0.855.
In the case of `CCN1CCN(CC(=O)NCc2ccc3[nH]c(C)c(C)c3c2)CC1`, the “bacterial growth OD600” value (polymyxin B 0.75 µg/mL) was found to be 0.838.
The same measure, in the same setting: the same measure for `CS(=O)(=O)N1C[C@H]2OC(=O)N(CCCc3ccc(F)cc3)[C@H]2C1`: 0.845; for `Cc1ccc2nc(N3CCC(C(=O)N4CC5CCC4C5)CC3)nc(C)c2c1` (centres undefined): 0.857.
Consider `CCOC(=O)CNC(=O)N1CCC(C2CCN(Cc3cccnc3)CC2)C1` (centres undefined), for which the “bacterial growth OD600” value (polymyxin B 1 µg/mL) stood at 1.04.
For the compound `Cc1ccccc1-n1ncc2c1CC(C)(C)CC2NC(=O)Cc1nonc1C` (centres undefined), for the setting “polymyxin B 0.75 µg/mL”, the “bacterial growth OD600” value came to 0.827.
Still for that read-out and setting: next, `CSc1ccc(CC(=O)NCc2nc(-c3ccccc3NC(=O)C3CCC3)oc2C)cc1`: 0.873.
With `CCC(NC(=O)c1ccc2nc(CCOC)oc2c1)c1nc2cc(C)ccc2[nH]1` (centres undefined), for the setting “polymyxin B 1 µg/mL”, the “bacterial growth OD600” value came out at 0.814.
Take `CN(C)C1(C(=O)NCc2cn3c(n2)SCC3)Cc2ccccc2C1`: the “bacterial growth OD600” value (polymyxin B 0.75 µg/mL) came to 0.85.
On the same count and under the same terms, next, `CN(Cc1cnccn1)C(=O)C1(N2CCCCC2)Cc2ccccc2C1`: 0.008; `COC(=O)[C@H](Cc1ccccc1)NC1CCN(c2ccc(CC(=O)NCc3ccccc3)cc2)CC1`: 0.81.
Still for that read-out and setting: the same measure for `CCC(NC1CCN(c2ccc(C(=O)NC3CCCC3)cc2)CC1)c1nc2cc(C)ccc2[nH]1` (centres undefined): 0.701.
As for `Cc1cccnc1CN(C)CC1(O)CCCN(CC2CCC2)C1=O` (centres undefined), for the setting “polymyxin B 1 µg/mL”, the “bacterial growth OD600” value worked out at 0.925.
On the same count and under the same terms, next, `CN(CC1CCCN(CCc2ccc(Cl)cc2)C1)C(=O)CCC(F)(F)F` (centres undefined): 0.985.
The same measure, in the same setting: next, `CCCN(CC1CCCO1)C(=O)c1ccc2nc(C3CCCCC3)oc2c1` (centres undefined): 0.897; `CC(C)CC(=O)Nc1ccnn1C1CCN(C(=O)C(=O)CCc2ccccc2)CC1`: 0.009.
